From PubChem BioAssay AID1688 (National Center for Advancing Translational Sciences (NCATS), 2009)
About 2,400 (1.1%) of roughly 220,000 compounds were called active. Inconclusive means that the source gave no clear call. Such entries were picked first, then a sample of the others. The call rests on the fitted dose curve; in most records, active means well fitted inhibition curve with a large enough effect; inconclusive means small, poorly fitted or top-dose-only effect, or effect the other way; inactive means no such curve, though single readings can be large or run the other way. A potency beside an inconclusive call is a rough fit, not a confirmed value.

test: qHTS Multiplex Assay to Identify Dual Action Probes in a Cell Model of Huntington: Aggregate Formation (GFP); conditions: PC12 HttQ103-GFP aggregates, Acumen cytometry, 40 h; activity change, negative = inhibition: at 46.1 µM (top of the series) unless noted; further: nearly all actives have a fitted effect of over 60% in size
Outline: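 Using laser scanning cytometry, GFP-positive aggregates were counted after lysis of PC12 cells induced with 100 nM tebufenozide to express HTT exon 1 Q103–GFP. Compounds were tested in titration.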
On the % scale 0 is the no-effect control and ±100 the full control effect; potency means the concentration at half of the fitted maximal effect.

Compound	activity change, negative = inhibition	Potency
COC(=O)NCc1ccc2c(c1)OCO2	inactive: 9.43%	
Cc1cc(/C=C(/C#N)c2cccc(F)c2)c(C)n1-c1cccnc1		inconclusive: 11.2 µM [inhibitor, partial curve]
COc1cc(/C=C/C(=O)Nc2ccc(C)cc2)cc(OC)c1OC		inconclusive: 22.4 µM [activator, single point]
Cc1ccc(C)c(N2CCN(C(=O)Cc3ccc(-n4c(=O)[nH]c5ccsc5c4=O)cc3)CC2)c1		inconclusive: 0.112 µM [inhibitor, partial curve, poor fit]
C/C(=C\C(=O)c1ccccc1)Nc1ccc2c(c1)OCO2		inconclusive: 35.5 µM [inhibitor, single point]
O=C1CC(N2CCN(c3ccc(F)cc3)CC2)C(=O)N1c1ccc2c(c1)OCO2 (configuration not stated)	inactive: 17.3%	
CCOC(=O)c1[nH]c2ccccc2c1NC(=O)C(C)(C)C	inactive: -1.82%	
COc1cc2c(C#N)c(N3CCN(c4ccccc4OC)CC3)nc(N)c2c(N)n1		active: 11.2 µM
COc1ccc(Oc2cn[nH]c2-c2ccc(O)cc2O)cc1		inconclusive: 11.2 µM [inhibitor, partial curve]
CNC(=O)NC(=O)CSc1nnc(-c2ccco2)n1Cc1ccccc1	inactive: -1.79%	
C=CCN(CC=C)S(=O)(=O)c1ccc(NC(=S)NC(=O)c2ccco2)cc1	inactive: -19.8%	
COc1ccc(NC2CS(=O)(=O)CC2NCc2ccco2)cc1 (configuration not stated)		inconclusive: 1.26 µM [inhibitor, single point]
CN(C)S(=O)(=O)Nc1ccc(Oc2ccccc2)cc1		inconclusive: 8.91 µM [inhibitor, partial curve]
C=CCOc1c(CNc2cccc(C(=O)O)c2)cccc1OC		inconclusive: 5.62 µM [inhibitor, single point]
CN(C)C=Nc1ncc2c([nH]c3ccccc32)c1C#N		active: 6.31 µM
O=C1c2ccccc2C(Nc2ccc3c(c2)OCCO3)N1Cc1ccccc1 (configuration not stated)		inconclusive: 12.6 µM [inhibitor, single point]
COc1ccc(-c2nnc(SCc3ncc(-c4ccccc4)o3)o2)cc1		inconclusive: 35.5 µM [inhibitor, single point]
COc1cccc(/C=N/Nc2nn3cnnc3c3ccccc23)c1O		inconclusive: 3.98 µM [inhibitor, full curve, poor fit]
COc1ccc2cc(CN(CCc3ccccc3)Cc3nnnn3Cc3ccco3)c(=O)[nH]c2c1	inactive: -3.85%	
Oc1c(Cl)cc(Cl)cc1/C=C/c1ccc2cccc(O)c2n1		inconclusive: 22.4 µM [inhibitor, single point]
Cc1nc(NC(=O)c2oc3ccccc3c2C)sc1C(=O)N(C)C	inactive: -8.41%	
CCN(CC)c1ccc(NC(=O)COc2ccc(C)cc2)cc1		inconclusive: 11.2 µM [activator, partial curve]
CN1/C(=C\C(=O)c2cccc(S(=O)(=O)N3CCCCC3)c2)C(C)(C)c2ccccc21		inconclusive: 2.51 µM [inhibitor, partial curve]
Cc1cc(Nc2cccc(C(F)(F)F)c2)n2nc(C)nc2n1	inactive: -13.4%	

Some of these compounds in order of SMILES length, descending:
Compound	activity change, negative = inhibition	Potency
C=CCN(CC=C)S(=O)(=O)c1ccc(NC(=S)NC(=O)c2ccco2)cc1	inactive: -19.8%	
COc1cc(/C=C/C(=O)Nc2ccc(C)cc2)cc(OC)c1OC		inconclusive: 22.4 µM [activator, single point]
C/C(=C\C(=O)c1ccccc1)Nc1ccc2c(c1)OCO2		inconclusive: 35.5 µM [inhibitor, single point]
COc1ccc(Oc2cn[nH]c2-c2ccc(O)cc2O)cc1		inconclusive: 11.2 µM [inhibitor, partial curve]

(cont.)

Compound	activity change, negative = inhibition	Potency
Cc1ccccc1OCCn1cc(C(=O)O)c2ccccc21	inconclusive: 32.9% [activator]	
CC1=C(C(=O)OCc2ccc3c(c2)OCO3)C(c2ccc(Cl)cc2)NC(=O)N1 (configuration not stated)		active: 1 µM
O=C1C(Cl)=C(N2CCN(Cc3ccccc3)CC2)C(=O)N1Cc1ccccc1		inconclusive: 11.2 µM [inhibitor, partial curve, poor fit]
Cc1cccc(NC(=O)Cn2nnc(-c3cccs3)n2)c1C		inconclusive: 8.91 µM [inhibitor, partial curve]
Cc1nnc(SCc2ccc(C(=O)O)cc2)s1	inactive: 13.2%	
O=C(CN1CCCc2ccccc21)N/N=C/c1ccc(O)cc1O		inconclusive: 11.2 µM [inhibitor, partial curve]
CC(On1nnc2ccccc21)C(=O)N1CCN(Cc2ccccc2)CC1 (configuration not stated)		inconclusive: 1.26 µM [activator, single point]
O=C(NNC1=C(C(=O)C(F)(F)F)CCC1)c1ccc(Br)cc1		active: 11.2 µM
Cc1cc(C)c2nc3s/c(=C/c4ccc5c(c4)n(C)c(=O)n5C)c(=O)n3c2c1		inconclusive: 0.112 µM [activator, full curve]
COc1cccc(CNC(=O)CCl)c1		inconclusive: 0.631 µM [inhibitor, single point]
COc1ccc(OC)c(-c2oc3ccccc3c(=O)c2O)c1		inconclusive: 5.62 µM [inhibitor, single point]
C/C=C/c1ccc(OCCCCOc2ccc(OC)cc2)c(OC)c1		inconclusive: 2.51 µM [activator, partial curve]
CC(=O)Nc1ccc(Nc2ncnc3c2cnn3-c2ccccc2)cc1	inactive: -23.5%	
O=C(O)C1C2C=CC(C2)C1C(=O)NC1CCS(=O)(=O)C1 (configuration not stated)	inactive: 5.97%	
CCOC(=O)N1CCC(Nc2c(N3CCN(c4cccc(C(F)(F)F)c4)CC3)c(=O)c2=O)CC1		inconclusive: 3.16 µM [activator, single point]
O=[N+]([O-])c1cccc2ccc(/C=C/c3ccc(Cl)cc3)nc12		inconclusive: 11.2 µM [inhibitor, partial curve]
O=C(Nc1ccc(F)cc1)N(Cc1nnc2n1CCCCC2)c1ccccc1	inactive: 5.12%	
Cc1cc2c(c(=O)o1)C(C13C=CC(CC1)C3)C(C#N)=C(N)O2 (configuration not stated)		inconclusive: 15.8 µM [activator, single point]
O=P(CCCCCCCCCP(=O)(c1ccccc1)c1ccccc1)(c1ccccc1)c1ccccc1		active: 11.2 µM
CCCCN(CC)S(=O)(=O)c1ccc(C(=O)Nc2nnc(-c3cccs3)o2)cc1	inactive: -8.71% [at 9.22 µM]	
CCCC(c1nnnn1Cc1ccco1)N1CCN(C2CCCC2)CC1 (configuration not stated)	inactive: 10%	
Cc1c(NC(=O)c2coc(=O)c(Br)c2)c(=O)n(-c2ccccc2)n1C		inconclusive: 35.5 µM [inhibitor, single point]
N=c1c(-c2nc3ccccc3[nH]2)cc(C(=O)c2ccco2)nn1-c1ccccc1		inconclusive: 0.891 µM [activator, full curve, poor fit]
Cc1ccc(SCCC(=O)N/N=C/c2ccccc2O)cc1		inconclusive: 3.98 µM [inhibitor, single point]

Compound	activity change, negative = inhibition	Potency
CC(C)(C)c1ccc(C(=O)N2CCC(=O)N(C(COCc3ccccc3)Cc3ccccc3)CC2)cc1 (configuration not stated)	inactive: -7.96%	
CO/N=C\CC(=O)Nc1ccc(Oc2ccccc2)cc1		inconclusive: 2.82 µM [inhibitor, partial curve]
COc1ccc2nc3cc(Cl)ccc3c(Nc3cc(C(C)C)c(O)cc3C)c2c1	inactive: -9.7% [at 9.22 µM]	
COC(=O)Nc1ccc(S(=O)(=O)N(C)CC(F)(F)C(F)F)cc1		inconclusive: 3.55 µM [inhibitor, single point]
COc1cccc(C(=O)/C=C/c2ccc(OCC#N)c(OC)c2)c1	inactive: -0.457%	
CCN1C(=O)N/C(=C/c2ccc(Sc3ccc(C)cc3)o2)C1=O	inactive: -24.8%	
Cn1c(SCC(=O)NC(C)(C)C)nc(O)cc1=O		inconclusive: 11.2 µM [activator, single point]
CCOC(=O)c1c(C)n(-c2ccc(C)cc2)c2ccc(OCC(O)CN3CCN(C)CC3)cc12 (configuration not stated)		inconclusive: 35.5 µM [inhibitor, single point]
CCS(=O)(=O)Nc1cccc(-c2nc3cccnc3s2)c1C		inconclusive: 12.6 µM [inhibitor, partial curve, poor fit]
CCc1nc(N[C@H](C(=O)O)C(C)C)c2oc3ccccc3c2n1	inactive: -14% [at 9.22 µM]	
CC(C)N(Cc1nc(-c2ccccc2)no1)C(=O)CN(C)S(=O)(=O)c1ccccc1	inactive: 9.56%	
O=c1[nH]c2ccc(Cl)cc2c(-c2ccccc2)c1SC(=S)N1CCCCC1		inconclusive: 25.1 µM [inhibitor, single point]
COc1ccccc1NS(=O)(=O)c1cc(NC(=O)Nc2ccc(Cl)cc2Cl)ccc1N1CCCCC1	inactive: 25.1%	
O=[N+]([O-])c1ccc(S(=O)(=O)CC(CN2CCOCC2)N2CCOCC2)cc1 (configuration not stated)		inconclusive: 15.8 µM [inhibitor, single point]
O=C(CCCO)N/N=C/c1cc(Br)ccc1O		active: 7.94 µM
Cn1c(SCc2nc(-c3ccc(Cl)cc3)no2)nnc1-c1ccccc1		inconclusive: 35.5 µM [inhibitor, single point]
CCOc1ccc(Cc2c(Cl)nc(SC)nc2N(C)C)cc1		inconclusive: 14.1 µM [inhibitor, single point]
CC1=C/C(=N\OS(=O)(=O)c2ccccc2)C=CC1=O		inconclusive: 35.5 µM [activator, single point]
Cc1cc(C)c2nc(C(F)(F)F)nc(N3CCN(C(=O)c4ccco4)CC3)c2c1		inconclusive: 31.6 µM [inhibitor, single point]
COCc1cc(C)nc(OCC(=O)N/N=C/c2ccc(-c3cc([N+](=O)[O-])ccc3Cl)o2)c1C#N	inactive: -6.96%	
Cc1ccc2c(c1)CC1(CN2C)C(=O)OC(C)(C)OC1=O		inconclusive: 3.55 µM [activator, single point]
Cc1cccc(S(=O)(=O)C(C#N)c2nc3ccccc3nc2N2CCOCC2)c1 (configuration not stated)		inconclusive: 8.91 µM [inhibitor, partial curve]
ClC1=C(Cl)C(Cl)=C(Cl)C1=C/C=C/c1ccccc1	inactive: -30.5% [at 9.22 µM]	
O=C(Cc1nc2ccccc2[nH]1)N/N=C/c1ccccc1		inconclusive: 3.16 µM [inhibitor, single point]
